Experimental data reported in the supplement of paper PMC10849652.
The other results are listed elsewhere or left out.

Chains of the proteins cited; added tags and fusions are not shown. Lines headed by an entry give the natural chain unless they say otherwise; changes in a name come on top.
UniProt Q6PHR2: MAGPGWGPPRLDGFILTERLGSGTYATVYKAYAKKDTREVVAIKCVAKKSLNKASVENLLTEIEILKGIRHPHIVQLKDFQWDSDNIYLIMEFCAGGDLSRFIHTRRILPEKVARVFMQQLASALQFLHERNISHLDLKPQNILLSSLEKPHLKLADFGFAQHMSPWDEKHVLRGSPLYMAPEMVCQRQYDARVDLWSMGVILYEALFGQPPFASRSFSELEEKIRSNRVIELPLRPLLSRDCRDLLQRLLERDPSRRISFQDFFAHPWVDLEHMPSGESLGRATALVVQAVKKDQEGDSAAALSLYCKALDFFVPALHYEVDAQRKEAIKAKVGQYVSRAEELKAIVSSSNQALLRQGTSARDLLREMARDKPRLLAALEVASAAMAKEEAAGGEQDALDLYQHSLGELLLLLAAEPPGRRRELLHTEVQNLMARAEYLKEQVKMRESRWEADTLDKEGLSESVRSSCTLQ
UniProt O94782: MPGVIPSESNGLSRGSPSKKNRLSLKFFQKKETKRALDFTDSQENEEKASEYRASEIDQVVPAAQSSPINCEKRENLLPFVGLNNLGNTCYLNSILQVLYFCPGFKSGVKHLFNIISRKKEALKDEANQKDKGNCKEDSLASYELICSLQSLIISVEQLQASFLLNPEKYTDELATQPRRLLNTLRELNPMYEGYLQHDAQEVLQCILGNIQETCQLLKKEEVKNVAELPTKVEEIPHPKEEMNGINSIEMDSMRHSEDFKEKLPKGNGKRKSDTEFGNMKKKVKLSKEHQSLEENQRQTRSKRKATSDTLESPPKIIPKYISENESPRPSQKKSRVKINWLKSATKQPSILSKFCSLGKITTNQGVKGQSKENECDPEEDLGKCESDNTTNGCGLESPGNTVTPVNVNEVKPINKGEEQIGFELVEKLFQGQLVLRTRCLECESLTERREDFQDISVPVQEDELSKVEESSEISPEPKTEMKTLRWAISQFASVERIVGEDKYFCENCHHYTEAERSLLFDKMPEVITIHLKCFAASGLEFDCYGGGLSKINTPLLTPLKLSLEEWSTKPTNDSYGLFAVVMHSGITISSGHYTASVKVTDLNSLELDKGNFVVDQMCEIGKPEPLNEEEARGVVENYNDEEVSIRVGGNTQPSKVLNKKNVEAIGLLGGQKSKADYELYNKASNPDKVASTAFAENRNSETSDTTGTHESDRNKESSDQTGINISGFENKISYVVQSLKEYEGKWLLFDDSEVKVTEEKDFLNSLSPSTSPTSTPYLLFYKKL
UniProt P55072, whole entry, looked up: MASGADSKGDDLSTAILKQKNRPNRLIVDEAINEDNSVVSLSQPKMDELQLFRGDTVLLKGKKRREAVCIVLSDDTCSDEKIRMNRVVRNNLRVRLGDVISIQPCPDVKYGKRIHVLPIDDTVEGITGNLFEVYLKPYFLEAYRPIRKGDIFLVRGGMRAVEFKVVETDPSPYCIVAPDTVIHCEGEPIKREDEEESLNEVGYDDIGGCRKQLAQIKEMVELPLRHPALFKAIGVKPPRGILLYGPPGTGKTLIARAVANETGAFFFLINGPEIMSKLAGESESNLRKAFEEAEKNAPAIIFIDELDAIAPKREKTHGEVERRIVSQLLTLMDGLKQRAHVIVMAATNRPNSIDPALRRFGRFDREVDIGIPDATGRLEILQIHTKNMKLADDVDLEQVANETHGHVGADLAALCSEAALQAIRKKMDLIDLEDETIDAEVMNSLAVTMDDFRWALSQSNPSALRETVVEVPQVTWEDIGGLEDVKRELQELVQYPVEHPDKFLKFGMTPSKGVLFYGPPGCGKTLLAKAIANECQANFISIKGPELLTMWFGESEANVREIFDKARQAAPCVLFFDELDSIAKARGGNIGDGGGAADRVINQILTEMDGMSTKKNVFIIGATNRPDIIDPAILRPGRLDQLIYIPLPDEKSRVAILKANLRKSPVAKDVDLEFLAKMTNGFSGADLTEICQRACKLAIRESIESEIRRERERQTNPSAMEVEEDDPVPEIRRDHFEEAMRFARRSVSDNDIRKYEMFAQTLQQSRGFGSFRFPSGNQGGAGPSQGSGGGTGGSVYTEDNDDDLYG
UniProt Q86UV5: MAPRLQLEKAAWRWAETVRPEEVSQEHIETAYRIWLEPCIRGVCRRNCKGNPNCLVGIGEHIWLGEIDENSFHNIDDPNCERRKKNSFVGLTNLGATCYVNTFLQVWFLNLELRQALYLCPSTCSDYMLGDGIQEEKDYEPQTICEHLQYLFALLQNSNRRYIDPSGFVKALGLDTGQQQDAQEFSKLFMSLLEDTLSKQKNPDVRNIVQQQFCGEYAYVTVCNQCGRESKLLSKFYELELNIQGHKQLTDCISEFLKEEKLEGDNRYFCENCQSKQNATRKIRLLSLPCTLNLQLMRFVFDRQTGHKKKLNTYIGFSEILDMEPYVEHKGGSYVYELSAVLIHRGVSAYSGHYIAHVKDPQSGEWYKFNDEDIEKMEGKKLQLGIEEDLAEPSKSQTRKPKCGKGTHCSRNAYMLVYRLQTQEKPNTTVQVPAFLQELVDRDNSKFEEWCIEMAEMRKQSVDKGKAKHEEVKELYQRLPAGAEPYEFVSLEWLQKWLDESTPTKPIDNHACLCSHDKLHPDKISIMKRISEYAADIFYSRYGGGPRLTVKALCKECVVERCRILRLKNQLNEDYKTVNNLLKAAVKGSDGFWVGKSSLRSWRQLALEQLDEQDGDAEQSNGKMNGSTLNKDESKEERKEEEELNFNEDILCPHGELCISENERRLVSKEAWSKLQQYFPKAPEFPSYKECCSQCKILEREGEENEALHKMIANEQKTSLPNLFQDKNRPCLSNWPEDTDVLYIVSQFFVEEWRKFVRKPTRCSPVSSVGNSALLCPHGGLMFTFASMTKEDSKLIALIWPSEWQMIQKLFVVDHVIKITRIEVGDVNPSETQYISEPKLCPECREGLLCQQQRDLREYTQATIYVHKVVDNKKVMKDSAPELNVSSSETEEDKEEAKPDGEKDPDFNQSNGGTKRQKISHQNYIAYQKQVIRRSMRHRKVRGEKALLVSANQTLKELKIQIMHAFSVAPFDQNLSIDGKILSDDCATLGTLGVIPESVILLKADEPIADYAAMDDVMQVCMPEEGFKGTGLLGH
UniProt P50552: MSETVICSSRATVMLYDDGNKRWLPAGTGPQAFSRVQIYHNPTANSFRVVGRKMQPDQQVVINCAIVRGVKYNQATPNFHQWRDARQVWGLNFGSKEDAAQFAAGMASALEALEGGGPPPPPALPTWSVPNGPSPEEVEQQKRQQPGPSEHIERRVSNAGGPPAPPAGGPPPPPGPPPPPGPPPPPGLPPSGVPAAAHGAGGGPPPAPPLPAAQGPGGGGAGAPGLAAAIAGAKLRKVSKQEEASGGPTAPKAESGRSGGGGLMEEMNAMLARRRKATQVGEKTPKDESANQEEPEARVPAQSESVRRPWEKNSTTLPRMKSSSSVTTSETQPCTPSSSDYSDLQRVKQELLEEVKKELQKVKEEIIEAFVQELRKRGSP
UniProt Q9P2Y5: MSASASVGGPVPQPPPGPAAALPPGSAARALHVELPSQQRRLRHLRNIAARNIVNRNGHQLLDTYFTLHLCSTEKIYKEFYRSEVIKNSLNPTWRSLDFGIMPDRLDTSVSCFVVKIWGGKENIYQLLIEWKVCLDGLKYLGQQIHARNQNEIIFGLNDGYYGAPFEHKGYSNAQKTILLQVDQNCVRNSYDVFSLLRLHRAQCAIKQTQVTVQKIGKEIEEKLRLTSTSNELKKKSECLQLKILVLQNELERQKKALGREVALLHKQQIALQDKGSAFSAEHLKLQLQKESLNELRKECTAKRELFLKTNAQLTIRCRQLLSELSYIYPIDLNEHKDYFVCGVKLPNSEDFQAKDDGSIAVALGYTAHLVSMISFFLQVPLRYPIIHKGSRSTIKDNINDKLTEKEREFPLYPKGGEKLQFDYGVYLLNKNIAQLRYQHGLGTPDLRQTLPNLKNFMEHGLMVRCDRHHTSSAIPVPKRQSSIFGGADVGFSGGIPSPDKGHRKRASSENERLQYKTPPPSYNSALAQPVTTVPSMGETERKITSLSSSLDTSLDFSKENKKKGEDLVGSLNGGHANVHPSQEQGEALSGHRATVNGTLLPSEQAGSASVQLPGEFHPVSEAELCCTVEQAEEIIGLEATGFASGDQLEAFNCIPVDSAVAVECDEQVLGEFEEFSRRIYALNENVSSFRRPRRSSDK
UniProt Q8IZJ1, whole entry, looked up: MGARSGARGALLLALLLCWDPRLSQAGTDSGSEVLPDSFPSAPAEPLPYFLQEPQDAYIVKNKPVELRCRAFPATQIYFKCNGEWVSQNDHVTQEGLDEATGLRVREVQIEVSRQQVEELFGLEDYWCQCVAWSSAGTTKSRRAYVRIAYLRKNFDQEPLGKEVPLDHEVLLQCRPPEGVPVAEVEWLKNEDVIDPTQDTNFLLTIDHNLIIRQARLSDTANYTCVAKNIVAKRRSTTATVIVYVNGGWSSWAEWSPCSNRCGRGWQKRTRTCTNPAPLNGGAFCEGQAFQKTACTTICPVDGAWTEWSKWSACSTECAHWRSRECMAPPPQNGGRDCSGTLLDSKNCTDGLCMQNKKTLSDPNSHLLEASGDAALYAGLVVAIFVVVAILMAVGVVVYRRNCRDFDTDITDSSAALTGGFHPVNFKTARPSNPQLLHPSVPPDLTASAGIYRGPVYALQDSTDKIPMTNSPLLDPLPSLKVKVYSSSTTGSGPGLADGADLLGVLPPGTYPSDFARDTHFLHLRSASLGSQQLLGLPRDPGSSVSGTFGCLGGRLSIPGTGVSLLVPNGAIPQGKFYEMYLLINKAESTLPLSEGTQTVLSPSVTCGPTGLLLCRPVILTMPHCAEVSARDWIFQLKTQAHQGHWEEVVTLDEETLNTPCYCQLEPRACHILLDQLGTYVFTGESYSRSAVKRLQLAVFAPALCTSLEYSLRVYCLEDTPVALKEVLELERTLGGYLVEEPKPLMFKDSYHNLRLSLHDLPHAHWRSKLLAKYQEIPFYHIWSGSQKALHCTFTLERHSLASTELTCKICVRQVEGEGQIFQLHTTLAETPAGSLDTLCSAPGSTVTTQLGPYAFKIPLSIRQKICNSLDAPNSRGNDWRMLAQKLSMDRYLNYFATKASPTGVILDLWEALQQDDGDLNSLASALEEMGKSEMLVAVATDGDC
UniProt O94763, whole entry, looked up: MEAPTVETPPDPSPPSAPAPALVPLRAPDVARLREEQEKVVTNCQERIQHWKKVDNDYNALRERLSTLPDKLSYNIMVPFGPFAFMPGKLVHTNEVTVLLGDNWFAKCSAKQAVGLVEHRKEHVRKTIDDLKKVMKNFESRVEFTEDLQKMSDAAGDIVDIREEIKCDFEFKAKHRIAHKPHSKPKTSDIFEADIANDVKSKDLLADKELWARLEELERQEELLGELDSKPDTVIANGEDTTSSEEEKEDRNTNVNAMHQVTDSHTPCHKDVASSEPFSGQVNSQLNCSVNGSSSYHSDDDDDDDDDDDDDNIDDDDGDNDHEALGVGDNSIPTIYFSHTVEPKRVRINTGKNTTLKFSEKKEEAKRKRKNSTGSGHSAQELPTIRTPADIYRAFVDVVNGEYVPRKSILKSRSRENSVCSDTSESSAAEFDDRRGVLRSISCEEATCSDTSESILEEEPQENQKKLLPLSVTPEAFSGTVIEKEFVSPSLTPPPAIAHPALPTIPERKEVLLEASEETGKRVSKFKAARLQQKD
UniProt Q9Y5J1: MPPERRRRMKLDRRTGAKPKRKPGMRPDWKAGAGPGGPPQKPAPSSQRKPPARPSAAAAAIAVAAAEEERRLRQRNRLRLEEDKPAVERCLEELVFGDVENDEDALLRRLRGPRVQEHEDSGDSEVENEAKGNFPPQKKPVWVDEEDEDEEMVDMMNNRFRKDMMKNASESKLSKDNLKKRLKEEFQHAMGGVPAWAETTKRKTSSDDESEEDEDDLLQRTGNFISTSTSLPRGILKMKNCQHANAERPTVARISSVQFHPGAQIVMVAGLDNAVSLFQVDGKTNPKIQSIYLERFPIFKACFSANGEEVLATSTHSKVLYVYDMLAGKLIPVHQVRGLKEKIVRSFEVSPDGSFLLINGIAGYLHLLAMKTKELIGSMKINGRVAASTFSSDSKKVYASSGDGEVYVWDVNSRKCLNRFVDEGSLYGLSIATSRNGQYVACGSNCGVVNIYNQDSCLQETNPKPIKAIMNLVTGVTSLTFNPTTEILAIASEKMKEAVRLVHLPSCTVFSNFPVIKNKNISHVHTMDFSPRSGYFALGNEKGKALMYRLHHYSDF
UniProt P07919: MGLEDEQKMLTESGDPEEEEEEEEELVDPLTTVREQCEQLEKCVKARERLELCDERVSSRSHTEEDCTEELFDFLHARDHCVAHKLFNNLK
UniProt A6NIH7: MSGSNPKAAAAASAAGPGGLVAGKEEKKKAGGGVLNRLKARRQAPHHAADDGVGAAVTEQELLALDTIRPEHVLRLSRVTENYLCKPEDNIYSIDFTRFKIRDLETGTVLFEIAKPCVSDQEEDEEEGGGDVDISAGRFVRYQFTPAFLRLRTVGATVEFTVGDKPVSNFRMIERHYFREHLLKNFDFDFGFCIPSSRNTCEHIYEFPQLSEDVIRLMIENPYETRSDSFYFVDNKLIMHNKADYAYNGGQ

Each target was assayed with Cc1ccc(NC(=O)c2ccc(CN3CC[C@H](N(C)C)C3)c(C(F)(F)F)c2)cc1Nc1nccc(-c2cncnc2)n1 [bafetinib] (assay: log2 fold change, soluble protein after heating vs DMSO (PISA); higher = thermal stabilisation; K562 lysate, 10 uM; active = over 0.2 and 3.5 SD of the protein, either way, in both replicates (recomputed)).
Outline: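 Values give the log-two fold change in thermal stability against solvent controls, from duplicates. Crude K562 extract at 1 mg/mL protein, made by dounce homogenisation in PBS pH 7.4 with 1 mM MgCl2, was treated with 10 μM compound for 30 min. After 3 min heating across 48°C-58°C, aliquots were pooled, adjusted to 0.5% NP-40 at 4°C and centrifuged at 21,000xg for 90 min. The supernatant was measured by TMTpro 16plex LC-MS/MS with channel sums equalised.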

log2 fold change, inactive:
UQCRC1 (UniProt P31930) 0.059, VDAC2 (UniProt Q5JSD1) 0.011, USO1 (UniProt O60763) -0.089, ULK3 isoform 4 (UniProt Q6PHR2) 0.041, USP1 (UniProt O94782) -0.102, VCP (UniProt P55072) 0.04, USP48 (UniProt Q86UV5) -0.134, UQCRFS1 (UniProt P47985) 0.041, VASP (UniProt P50552) 0.136, UROS (UniProt P10746) -0.07, UGP2 (UniProt Q16851) -0.015, UVRAG (UniProt Q9P2Y5) -0.006, UNC5B (UniProt Q8IZJ1) -0.019, USP11 (UniProt P51784) -0.049, USP34 (UniProt Q70CQ2) -0.041, URI1 isoform 4 (UniProt O94763) 0.023, USO1 isoform 2 (UniProt O60763) -0.013, UTP18 (UniProt Q9Y5J1) -0.084, ULBP1 (UniProt Q9BZM6) -0.034, UQCRH (UniProt P07919) 0.046, UCKL1 (UniProt Q9NWZ5) -0.016, UIMC1 (UniProt Q96RL1) -0.041, UNC119B (UniProt A6NIH7) 0.077
